Laboratory results reported in patent US12622884B2, “Treatment and prevention of glioblastoma” (CONSEJO SUPERIOR DE INVESTIGACIONES CIENTÍFICAS, priority 2018, dated 2026).
Some results were stated once for a whole list of compounds, not compound by compound.

Test system: U-87 gliospheres
Assay: Gliosphere formation of U-87 cells under drug treatment
Type: cell-based, human
Conditions: 10 to 100 μM tested; 72 hours
Description: A: photographs of gliospheres formation after 72 hours of drug treatment. U-87 cells were cultured in medium for gliosphere formation, and either treated with vehicle (control, on the left), or with ICI 118,551, and propranolol at different concentrations from 10 to 100 μM. […] B: Limit dilution assay experiment (ELDA) for oncosphere formation in the presence of different concentrations of ICI 118,551 and propranolol.
Following the protocol described elsewhere (Diaz-Guerra, E.; Lillo, M. A.; Santamaria, S.; Garcia-Sanz, J. A., Intrinsic cues and hormones control mouse mammary epithelial tree size. FASEB J 2012, 26 (9), 3844-53). Cells were detached from the plate with trypsin (Invitrogen) and plated in complete medium (DMEM/F-12 medium with GlutaMAX) supplemented with B27 (Gibco), 10 ng/ml epidermal growth factor (EGF: Invitrogen) and 10 ng/ml basic fibroblast growth factor (bFGF: Millipore) and they were maintained at 37° C. in 5% CO2. For the ELDA assay cells were dissociated to single cells with trypsin, and seeded at different dilutions (from 100 to 10 for U-87 cells) in sphere complete media following procedures described in Ponti, D et al., (Cancer Res 2005, 65 (13), 5506-11.). The final number of spheres was quantified at 14 days, and the final data and statistical significance was obtained with ELDA software (Hu, Y. et al J Immunol Methods 2009, 347 (1-2), 70-8). […]

CC(C)NCC(O)COc1cccc2ccccc12 (stereo not shown) [propranolol]
concentration from which inhibition of gliosphere formation is patent: ≥ 10 µM
